Results on 59 compounds are retold here after PubChem BioAssay AID2685 (National Center for Advancing Translational Sciences (NCATS), 2010).

The nature of this assay: qHTS Assay for Lipid Storage Modulators in Drosophila S3 Cells.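 As to cell number change: cells counted by Cell Tracker Red CMTPX staining in the red channel.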 As to conditions: BODIPY lipid droplet fluorescence, 18-24 h; for cell number change: measured here: cell count max response, cells fed with added oleic acid. The procedure, abridged: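 Drosophila S3 cells loaded with oleic acid (400 uM, as added) and compounds at several concentrations; lipid droplets imaged by 488-nm laser-scanning cytometry, 500–530 nm intensity and object ratio to cell channel. Percent activity normalized to 20 uM Triacsin C.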

The mark [1] stands for this setting: measured here: cell number channel AC50, cells fed with added oleic acid.
[2] abbreviates: measured here: lipid fluorescence (Fed channel) AC50, cells fed with added oleic acid.

The structures appear in SMILES notation. The list shows a part of the results. These are further read-outs of the screen, such as a control signal, another cell line or another target. No call is given for them. Compounds called inactive in the main read-out are mostly missing here. The note in brackets gives the kind of curve behind each potency; many fits are weak.

Usually AC50 stands for the concentration at which the activity in the assay is half-maximal. With `Cc1cccc(C(=O)NNC(=O)CSc2nnc(C(C)C)n2C)c1`, the cell number change was -15.4%. The AC50 under setting [1] is 0.146 µM [falling, full curve, poor fit].
On to `Cc1ccc(-c2nnc3sc(CCc4ccccc4)nn23)cc1`, for which the AC50 under setting [2] was 1.64 µM [rising, partial curve].
With `COc1ccc(-c2cc3cc(OC)c(OC)cc3c(C)n2)cc1C`, the cell number change is 9.8%. Besides, under setting [2], the half-maximal activity concentration (AC50) is 1.46 µM [falling, full curve, poor fit].
Turning to `O=C(Oc1ccccc1)c1cccc2cccc(C(=O)Oc3ccccc3)c12`, the cell number change came out at 6.32%. For the same compound, the AC50 under setting [2] is 29.1 µM [falling, single point].
With `CCOC(=O)c1ccc(/C=N/O)[n+](Cc2ccccc2)c1`, the cell number change is 5.7%. Besides, under setting [2], the AC50 was 0.651 µM [falling, single point].
Consider `COc1ccc(/C=C/C(=O)c2ccc3ccccc3c2O)cc1CN1CCOCC1`, for which the AC50 under setting [2] was 29.1 µM [rising, single point].
Turning to `Cc1nc2cc(NC(=O)COc3ccc(C#N)cc3)ccc2n1-c1ccccc1`, the cell number change was -26.7%. Besides, the AC50 under setting [2] is 16.4 µM [falling, partial curve, poor fit].
As for `C=CCn1c(SCC(=O)NC23CC4CC(CC(C4)C2)C3)nc2cc(C(=O)O)ccc2c1=O`, the cell number change was 35.5%. For the same compound, the AC50 under setting [1] was 29.1 µM [rising, single point].
For `COc1cccc(Cn2cc(C(=O)NCCN(C)C)nn2)c1`, the cell number change was -42.9%. Further, the AC50 under setting [1] was 29.1 µM [falling, single point].
As for `COc1ccc([N+](=O)[O-])cc1NC(=O)CN(C)S(=O)(=O)c1ccccc1`, the cell number change came out at 12.9%. In addition, under setting [1], the AC50 was 2.06 µM [rising, partial curve, poor fit]. Further, under setting [2], the AC50 is 3.66 µM [rising, single point].
Turning to `CCN1CCN(C(=O)N2CCOCC2)CC1`, the cell number change is -11.5%. In addition, the AC50 under setting [2] is 0.291 µM [falling, partial curve, poor fit].
Consider `C/C(=N\Nc1cccc([N+](=O)[O-])c1)c1cc2ccccc2o1`, for which the cell number change is -25.2%. Further, the AC50 under setting [2] is 0.731 µM [falling, single point].
Regarding `CC(C)Sc1nc2sc3c(c2c2nnc(SCC(=O)NCc4ccco4)n12)CCCC3`, the concentration at half-maximal activity (AC50) reads like this: under setting [1], 1.84 µM [rising, partial curve]; under setting [2], 0.651 µM [rising, single point].
As to `COc1ccc(S(=O)(=O)NC(C)C(=O)NCc2cccnc2)cc1OC` (stereo unspecified), the cell number change turned out to be 16.8%.
Regarding `O=C(N/N=C/c1sc(N2CCCCC2)nc1-c1cccs1)c1cccnc1`, the cell number change is -27.4%.
Still for that read-out and setting: to `COc1ccc(C(NC(=O)CC(C)C)NC(=O)CC(C)C)cc1OC` belongs -0.817%.
For `CC(=O)N1C[C@H](O)C[C@H]1C(=O)O`, the cell number change was -38.2%. For the same compound, the AC50 under setting [1] is 29.1 µM [falling, single point]. In addition, the half-maximal activity concentration (AC50) under setting [2] is 29.1 µM [falling, single point].
Consider `CCc1ccc(-n2cccc2/C=C2/C(=N)N3C(=NC2=O)SN=C3S(C)(=O)=O)cc1`, for which the AC50 under setting [2] was 29.1 µM [rising, single point].
As for `COc1ccc(CCNC2=NCC(C)S2)cc1` (stereo unspecified), the cell number change was -18.2%. For the same compound, the AC50 under setting [2] was 14.6 µM [falling, partial curve].
On to `COc1ccc(CCNC2=C(Cl)C(=O)N(CCc3ccc(OC)c(OC)c3)C2=O)cc1OC`, for which the cell number change was found to be 21.4%. Under setting [2], the AC50 was 6.51 µM [rising, partial curve].
Turning to `Cc1ccc(C)c(CN2C(=O)NC3(CCCCCC3)C2=O)c1`, the AC50 runs as follows: under setting [1], 6.51 µM [rising, single point]; under setting [2], 29.1 µM [rising, single point].
With `CC(O)CNc1nc2c(c(=O)n(Cc3cccc(Cl)c3)c(=O)n2C)n1C` (stereo unspecified), the cell number change is 10.6%.
Turning to `CCOC(=O)c1sc(NC(=O)Nc2ccccc2)cc1C`, the cell number change is -53.9%. In addition, the AC50 under setting [1] was 29.1 µM [falling, single point]. Moreover, under setting [2], the AC50 was 1.3 µM [falling, single point].
As to `COc1cccc(Cn2cccc(NC(=O)Nc3ccccc3C)c2=O)c1`, the cell number change is -30.9%. Under setting [1], the AC50 is 18.4 µM [falling, single point]. In addition, the AC50 under setting [2] is 18.4 µM [falling, single point].
On to `O=C(NNC(=S)Nc1ccc(Cl)c(Cl)c1)c1cccc([N+](=O)[O-])c1`, for which the cell number change turned out to be 3.99%. In addition, the AC50 under setting [2] was 0.103 µM [falling, full curve, poor fit].
For `Cc1ccc(C2=NCN(c3ccc(C(=O)O)cc3)C(=S)N2)cc1`, the cell number change was -2.28%. The concentration at half-maximal activity (AC50) under setting [2] is 0.731 µM [falling, partial curve, poor fit].
Take `COc1ccccc1N1CCN(S(=O)(=O)c2ccc3nc(-c4ccccc4)[nH]c3c2)CC1`: the cell number change is 41.6%. The half-maximal activity concentration (AC50) under setting [1] is 7.31 µM [rising, single point]. The AC50 under setting [2] is 20.6 µM [rising, single point].
With `COC(=O)CN1CCN(C(=O)c2ccc(F)cc2)c2ccccc2C1`, the cell number change was determined as 12.7%. Further, the AC50 under setting [2] is 0.103 µM [falling, full curve, poor fit].
Consider `C/C(=N\NC(=O)c1cc(-c2ccncc2)nc2ccccc12)c1ccc(N2CCOCC2)cc1`, for which the cell number change turned out to be 33.1%. In addition, the concentration at half-maximal activity (AC50) under setting [1] is 11.6 µM [rising, partial curve, poor fit].
With `Cc1nnc(NC(=O)CSc2ccc3nnc(-c4cccnc4)n3n2)s1`, the cell number change was determined as 33.9%. Moreover, the AC50 under setting [1] was 29.1 µM [rising, single point]. Further, the AC50 under setting [2] is 1.16 µM [rising, full curve].
Consider `COc1ccc(S(=O)(=O)Nc2c(NC3CCCCC3)c3ccccc3oc2=O)cc1`, for which the cell number change was -49.8%. In addition, under setting [1], the AC50 was 29.1 µM [falling, single point].
As to `O=c1c(CN2CCN(c3ccccn3)CC2)coc2ccccc12`, the cell number change is -35.5%. Also, the AC50 under setting [1] is 7.31 µM [falling, partial curve, poor fit]. Also, the AC50 under setting [2] was 29.1 µM [rising, single point].
With `COc1ccc(NC(=O)CCn2c(=O)c3cccn3c3ccccc32)c(OC)c1`, the cell number change was -23.6%. The AC50 under setting [2] was 0.461 µM [rising, partial curve, poor fit].
In the case of `COc1cc(CN2CCCC(N3CCN(c4ccccc4C)CC3)C2)ccc1O` (stereo unspecified), the cell number change stood at 14.5%.
`COc1ccccc1CCC(=O)Nc1ccc(OC)c(S(=O)(=O)N2CCOCC2)c1`: the cell number change is 30.1%. For the same compound, the concentration at half-maximal activity (AC50) under setting [1] was 23.1 µM [rising, single point]. The AC50 under setting [2] was 2.06 µM [rising, single point].
`Cc1[nH]nc(-c2ccc(O)c(C)c2O)c1-c1cnn(-c2ccccc2)c1`: the cell number change is -12.2%. For the same compound, under setting [2], the AC50 is 0.0366 µM [rising, full curve, poor fit].
Consider `Cc1nc2ccccc2c2nc3ccccc3n12`, for which the cell number change came to 1.5%. For the same compound, under setting [2], the AC50 is 18.4 µM [rising, partial curve].
Take `CC1(CCc2ccccc2)NC(=O)N(CC(=O)Nc2ccc(S(N)(=O)=O)cc2)C1=O` (stereo unspecified): the cell number change was -3.79%. Besides, the AC50 under setting [2] was 20.6 µM [falling, partial curve, poor fit].
As to `CCNC(=O)/C(C#N)=C/c1c(N2CCN(c3ccc(OC)cc3)CC2)nc2c(C)cccn2c1=O`, the cell number change is -6.31%. Besides, the AC50 under setting [1] was 0.411 µM [falling, single point].
On to `CCCCC1CCC(/C(N)=N/O)CC1` (stereo unspecified), for which the cell number change is 9.29%. The AC50 under setting [2] is 29.1 µM [rising, single point].
On to `CC(C)CCn1c(SCCc2ccccc2)nc2c1c(=O)[nH]c(=O)n2C`, for which the cell number change was -33.3%. The AC50 under setting [1] was 0.517 µM [rising, full curve]. Besides, the AC50 under setting [2] was 0.82 µM [rising, full curve].
As for `CCN(CC)Cc1c(C(=O)N/N=C/c2ccncc2)nnn1-c1nonc1N`, the cell number change was -10.8%.
On to `Cc1ccc2oc(=O)n(CC(=O)O)c2c1`, for which the cell number change is -9.99%. Further, the AC50 under setting [2] was 7.31 µM [rising, partial curve, poor fit].
Consider `CC(C)N(C)Cc1nnnn1CC(=O)NCCc1cccc(C(F)(F)F)c1`, for which the cell number change was -4.67%. Under setting [2], the AC50 is 1.03 µM [falling, full curve].
`CC(C)(CNC(=O)C1CCCN1C(=O)c1cccs1)N1CCOCC1` (stereo unspecified): under setting [2], the AC50 was 29.1 µM [falling, partial curve, poor fit].
`COc1cccc(C(C(=O)NC2CCCCC2)N(Cc2ccco2)C(=O)c2ccccn2)c1` (stereo unspecified): the cell number change is -35.9%. Under setting [2], the AC50 was 0.0731 µM [rising, partial curve, poor fit].
Consider `O=C(CC(C(=O)O)C1CCCO1)NCc1ccccc1` (stereo unspecified), for which the cell number change was -32.8%. For the same compound, under setting [1], the AC50 is 29.1 µM [falling, single point]. Under setting [2], the half-maximal activity concentration (AC50) was 25.9 µM [falling, single point].
Take `CCNc1ccc2c(Cl)cc(=O)oc2c1`: the AC50 under setting [1] is 0.731 µM [falling, single point].
`COc1ccccc1NC(=O)C(CCS(C)(=O)=O)N1C(=O)c2ccccc2C1=O` (stereo unspecified): the cell number change is -8.91%. Further, the concentration at half-maximal activity (AC50) under setting [2] was 20.6 µM [falling, partial curve].
Consider `COCCNC(=O)C(c1ccc(F)cc1)N(Cc1ccco1)C(=O)CCC(=O)Nc1nccs1` (stereo unspecified), for which the cell number change is -2.02%. The half-maximal activity concentration (AC50) under setting [1] was 0.082 µM [rising, full curve, poor fit]. The half-maximal activity concentration (AC50) under setting [2] is 11.6 µM [rising, partial curve, poor fit].
As for `CC(C(=O)Oc1ccc2c(c1)OCO2)N1C(=O)c2ccccc2C1=O` (stereo unspecified), the cell number change turned out to be 9.76%. Also, the AC50 under setting [1] is 0.103 µM [rising, full curve, poor fit].
Take `COC(=O)C1CCN(C(=O)COC(=O)CNC(=O)c2ccc(Cl)cc2Cl)CC1`: the cell number change was -6.81%. Besides, the AC50 under setting [2] was 0.82 µM [rising, full curve].
Take `CCCOc1cccc(C(=O)N(Cc2ccc(OC)c(OC)c2)C2CCS(=O)(=O)C2)c1` (stereo unspecified): the cell number change was 63%.
As for `CCOc1cccc(C(=O)Nc2ccc(NC(=O)c3ccccc3)c(C)c2)c1`, the cell number change was -9.09%.
Same read-out and setting: with `O=c1[nH]c(=O)n(CCO)c2nnn(Cc3ccccc3)c12` the figure was 7.1%.
Take `Cc1cccc(-c2noc(CN(C)C(=O)c3ccoc3C)n2)c1`: the cell number change worked out at 19.3%. Further, under setting [2], the AC50 was 29.1 µM [rising, single point].
Consider `Cc1ccc(C(=O)Nc2ccc(F)cc2)o1`, for which the cell number change was found to be 10.9%. Also, the AC50 under setting [2] is 0.13 µM [falling, full curve, poor fit].
Take `CC1(C)Cc2ccccc2C(NNC(=O)c2ccccn2)=N1`: the cell number change worked out at 29.6%. The concentration at half-maximal activity (AC50) under setting [2] was 0.58 µM [rising, full curve, poor fit].
Take `Cc1occc1-c1nnc(SCC(=O)Nc2nc(C(C)(C)C)cs2)o1`: the cell number change is -74.5%. Also, under setting [1], the AC50 is 9.2 µM [falling, partial curve, poor fit]. The AC50 under setting [2] is 7.31 µM [falling, partial curve].
